{"source": "PubChem BioAssay AID504834", "about": "(National Center for Advancing Translational Sciences (NCATS), 2011)", "note": "Out of some 320,000 compounds screened, about 22,000 (6.9%) were called active. The shares of active, inactive and inconclusive entries below differ from those in the screen. Calls come from the whole dose curve; as a rule, active = well fitted inhibition curve with a large enough effect; inconclusive = small, poorly fitted or top-dose-only effect, or another doubt; inactive = no such curve, though single readings can be large or run the other way. Potencies of inconclusive entries are doubtful fits and often do not repeat. % is set by controls: 0 for no effect and ±100 for the full control effect; potency is the fitted concentration of half-maximal effect.", "data": [{"test": "Primary qHTS for delayed death inhibitors of the malarial parasite plastid, 96 hour incubation", "conditions": "P. falciparum luciferase reporter growth; series mostly up to 28.7 µM; activity change, negative = inhibition: at the top concentration", "procedure,_shortened": "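P. falciparum expressing integrated firefly luciferase, in erythrocytes at 2% hematocrit, 0.05% parasitemia, incubated with compounds 96 h at 37 C, 5% CO2. Growth inhibition read as loss of luminescence; two-generation exposure targets delayed-death apicoplast inhibitors.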", "values": [{"smiles": "CC(C)c1ccc(NC2CCCN(C(=O)CCN3CCOCC3)C2)cc1", "note": "(stereo unspecified)", "Potency": "inconclusive: 18.5 µM [inhibitor, single point]"}, {"smiles": "COCC1COS(=O)(=O)NC1(C)C", "note": "(stereo unspecified)", "activity change, negative = inhibition": "inactive: -16.4%"}, {"smiles": "Cc1sc(N/N=C/c2cccs2)nc1-c1ccccc1", "Potency": "inconclusive: 16.5 µM [inhibitor, single point]"}, {"smiles": "Nc1ccc2nc(SCc3ccccc3F)sc2c1", "activity change, negative = inhibition": "inactive: 234%"}, {"smiles": "O=c1c(-c2n[nH]c(=S)o2)cccn1Cc1ccccc1", "Potency": "inconclusive: 2.33 µM [inhibitor, single point]"}, {"smiles": "CN(C)c1ccc(NS(=O)(=O)c2cc(Cl)ccc2Cl)cc1", "Potency": "inconclusive: 3.7 µM [inhibitor, partial curve, poor fit]"}, {"smiles": "O=C(N/N=C/c1ccc(-c2ccccc2)o1)c1ccccc1O", "Potency": "inconclusive: 20.8 µM [inhibitor, partial curve, poor fit]"}, {"smiles": "O=C(c1noc2c1CCCC2)N1CCc2c([nH]c3ccccc23)C1c1ccccn1", "note": "(stereo unspecified)", "Potency": "inconclusive: 18.5 µM [inhibitor, single point]"}, {"smiles": "Cc1cc(C)[n+]2[nH]c(N)c(N=Nc3ccccc3)c2n1", "activity change, negative = inhibition": "inactive: -23.9%"}, {"smiles": "O=C(/C=C/c1cccs1)Nc1ccc(N2CCOCC2)c(S(=O)(=O)Nc2cc(Cl)ccc2Cl)c1", "Potency": "inconclusive: 7.38 µM [inhibitor, single point]"}, {"smiles": "O=C(Nc1ccc(-n2cc(Br)cn2)cc1)c1ccncc1", "activity change, negative = inhibition": "inactive: 33.2%"}, {"smiles": "COc1ccc(NC(=O)CSc2nnc(C3CC3)n2C)cc1S(=O)(=O)N1CCOCC1", "Potency": "inconclusive: 3.29 µM [inhibitor, full curve, poor fit]"}, {"smiles": "CC(C)(C)N1Cc2ccccc2C1=N", "Potency": "inconclusive: 18.5 µM [inhibitor, single point]"}, {"smiles": "O=C(NNC(=O)c1cccs1)c1csc(N2CCOCC2)n1", "activity change, negative = inhibition": "inactive: 47.2%"}, {"smiles": "Cc1ccc(N2CC(C)Cn3c2nc2c3c(=O)[nH]c(=O)n2C)cc1", "note": "(stereo unspecified)", "Potency": "inconclusive: 18.5 µM [inhibitor, single point]"}, {"smiles": "CC(NC(=O)CCN1N=C(c2ccccc2)CCC1=O)c1ccc2c(c1)OCCO2", "note": "(stereo unspecified)", "activity change, negative = inhibition": "inactive: 18.7%"}, {"smiles": "Cc1ccc(NC(=O)C2CCCN(c3ncccn3)C2)c(C)c1", "note": "(stereo unspecified)", "Potency": "active: 13.1 µM"}, {"smiles": "O=C(Nc1ccc(C(F)(F)F)cc1)c1cc(S(=O)(=O)NCC2COc3ccccc3O2)ccc1F", "note": "(stereo unspecified)", "Potency": "inconclusive: 11.7 µM [inhibitor, single point]"}, {"smiles": "CC1CCCN(C(=O)c2ccc(NC(=O)CC3SC(N4CCCC4)=NC3=O)cc2)C1", "note": "(stereo unspecified)", "Potency": "inconclusive: 7.38 µM [inhibitor, partial curve, poor fit]"}, {"smiles": "CCC(C)[C@H](NC(=O)[C@@H]1Cc2c([nH]c3ccccc23)C2c3ccccc3C(=O)N21)C(=O)N1CCC[C@@H]1C(=O)O", "note": "(stereo partly specified)", "Potency": "active: 10.4 µM"}, {"smiles": "CCN(CC(=O)Nc1cc(Cl)ccc1C)C(=O)Cc1ccsc1", "Potency": "inconclusive: 10.4 µM [inhibitor, single point]"}, {"smiles": "CC(=O)CCC(=O)OCC(=O)c1ccc(C(F)(F)F)cc1", "activity change, negative = inhibition": "inactive: -9.59%"}, {"smiles": "COCCNC(=O)c1c(N)n(-c2cccc(C)c2)c2nc3ccccc3nc12", "Potency": "inconclusive: 18.5 µM [inhibitor, single point]"}, {"smiles": "CCCNc1cc(=S)nc(N)[nH]1", "Potency": "inconclusive: 10.4 µM [inhibitor, partial curve, poor fit]"}, {"smiles": "O=C(NCCCn1ccnc1)c1nn2c(C(F)(F)F)cc(-c3ccc(Br)cc3)nc2c1Cl", "Potency": "active: 2.94 µM"}, {"smiles": "O=C(CSc1nc(O)c(C(c2ccccc2)c2ccccc2)c(=O)[nH]1)N1CCOCC1", "Potency": "inconclusive: 10.4 µM [inhibitor, single point]"}, {"smiles": "O=C(Nc1ccccc1C(=O)NC(Cc1ccccc1)C(=O)NC1CCCCC1)c1ccccc1", "note": "(stereo unspecified)", "Potency": "inconclusive: 1.31 µM [inhibitor, partial curve, poor fit]"}, {"smiles": "CCOC(=O)c1ccc(N=C(C)c2c(O)[nH]c(=O)[nH]c2=O)cc1", "Potency": "inconclusive: 0.0026 µM [inhibitor, full curve, poor fit]"}, {"smiles": "Cc1c(NC(=O)Nc2cccc(Cl)c2)c(=O)n(-c2ccccc2)n1C", "Potency": "inconclusive: 0.0066 µM [inhibitor, full curve, poor fit]"}, {"smiles": "COc1ccc(NC(=S)Nc2ccc3nsnc3c2)cc1", "Potency": "active: 0.233 µM"}, {"smiles": "O=C(NCCc1ccccc1)/C(=C\\c1ccc([N+](=O)[O-])cc1)NC(=O)c1ccco1", "Potency": "inconclusive: 10.4 µM [inhibitor, single point]"}, {"smiles": "COc1ccccc1NC(=O)COc1ccc(/C=N/NS(=O)(=O)c2ccc(C)cc2)cc1", "Potency": "inconclusive: 5.86 µM [inhibitor, partial curve]"}, {"smiles": "COc1cc(OC)c(C(=O)Nc2ccncc2)cc1OC", "Potency": "inconclusive: 13.1 µM [inhibitor, single point]"}, {"smiles": "c1ccc(N2CCN(Cc3ccnc4ccccc34)CC2)cc1", "activity change, negative = inhibition": "inactive: -2.15%"}, {"smiles": "COc1ccc2nc(NC(=O)C3CCN(C(=O)c4ccc(F)cc4)CC3)sc2c1", "Potency": "active: 9.28 µM"}, {"smiles": "COc1ccc(NC(=O)CSc2nnc3ccc(-c4ccccn4)nn23)cc1", "Potency": "inconclusive: 10.4 µM [inhibitor, single point]"}]}]}
